Paper PMC8546589
Where two headings read alike, the source gives them in different places. No constants are given. Whether binding was seen depends on the method and setting. Binding seen in cells or lysates may run through a third protein. These calls come from enrichment with a bait or labelling near it, and not all partners need be listed. No binding means not detected with the bait. Tags and fused reporters may be left off the sequences shown.

T1: Myc-EhAgo2-2^ΔNLS-DR (E. histolytica) (UniProt C4LVV2)
T1 sequence: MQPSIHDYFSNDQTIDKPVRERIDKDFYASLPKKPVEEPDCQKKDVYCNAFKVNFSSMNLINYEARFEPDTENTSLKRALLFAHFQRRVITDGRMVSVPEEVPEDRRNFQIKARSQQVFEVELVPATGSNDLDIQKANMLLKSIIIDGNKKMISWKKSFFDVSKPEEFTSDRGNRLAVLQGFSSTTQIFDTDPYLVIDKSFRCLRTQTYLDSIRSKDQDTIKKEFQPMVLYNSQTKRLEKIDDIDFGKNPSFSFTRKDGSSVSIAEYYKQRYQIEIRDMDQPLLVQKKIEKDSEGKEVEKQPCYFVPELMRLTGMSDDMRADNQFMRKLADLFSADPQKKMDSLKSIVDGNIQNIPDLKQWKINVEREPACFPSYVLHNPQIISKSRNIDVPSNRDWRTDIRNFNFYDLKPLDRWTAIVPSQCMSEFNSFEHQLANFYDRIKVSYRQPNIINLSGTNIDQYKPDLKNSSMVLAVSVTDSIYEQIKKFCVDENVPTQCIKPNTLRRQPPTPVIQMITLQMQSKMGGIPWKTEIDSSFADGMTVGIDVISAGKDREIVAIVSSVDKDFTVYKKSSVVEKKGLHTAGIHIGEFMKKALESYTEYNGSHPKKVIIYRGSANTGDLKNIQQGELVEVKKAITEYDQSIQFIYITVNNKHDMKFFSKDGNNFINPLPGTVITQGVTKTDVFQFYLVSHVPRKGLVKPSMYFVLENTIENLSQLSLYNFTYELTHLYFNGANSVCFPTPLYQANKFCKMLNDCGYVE


Experiments:
[1] = biological target: T1, Myc-EhAgo2-2^ΔNLS-DR (E. histolytica); assay: affinity purification with mass spectrometry; anti-c-Myc agarose IP from whole-cell lysate of E. histolytica lines overexpressing the Myc-tagged bait (EhAgo2-2 WT, its two mutants, EhRdRP1, EhRdRP2), 2 h at 4°C, six low-stringency washes; LC-MS/MS in triplicate; nonribosomal hits in at least 2 of 3 data sets, exclusive or ≥3-fold enriched against the Luc control
[2] = biological target: T1, Myc-EhAgo2-2^ΔNLS-DR (E. histolytica); assay: as above; remark: listed apart in the source

Row | Molecule | binding [1] | binding [2]
1 | Hsp70 | no binding | 
2 | elongation factor 1-alpha 1 | no binding | 
3 | NAP07 (endogenous) (protein, UniProt C4M608 1-241) MSYQSSQLPEDESINRKLLQETNRSLKIAQAELTVKKVYKTMEYEKMMKILNERRKDVVVGLSDQKSEESQQSKPIKNDDVTSPKPQINNKGVPFFWIRALNAVSLFLSYNTVEEDLVALSYLNDIKITTLTPSFDMKSLTIKMGKELSFFFDKNPYFTNDHFTIRMIYRANENGERIGSTGRIKVITNGIDWKVNLLEINSSSFFNVFIQELVNEEDYEILDSVFDNFNTKAIQYFYQFN |  | binds
4 | NAP12 (endogenous) (protein, UniProt C4M8H9 1-264) MSIHSIDKINKVILSKNIDEYIDIVGGEVNENLEELKKIDKEIGEKEIEYQLECLKLEQESEKDIQEILKIRRAIINGTKHRTNDGIQECGISNFWIEVFNEVGLMGNLEVTKEEIDILQSLIDIEKHIKEIKRNEGKEEIYINIHYTFLFKENQFLSNSIFEFELEHCINRYGIIIEETRNYIPLSHFKWKKQIKEKRMFDLLENGGKNLHCYLHEALNNIDFGAIDMFFGINTQNLFLDSFSVSDDENDCSVDDGCVDYATH |  | binds
5 | DNA repair protein (EHI_114930) (protein, UniProt C4M7S7 1-764) MKRSCAPSQKKLLSQKPLHQPKQQEENQKKNPKVLLKVITQEKKKIDIIKVFKIMWAKNSPKKQKTFNDGFIVVNSNNIGLIHDEEDKVIGKVNNIMKEISPETIGGDSIILAGKVIEIEEEVPVEQYLSGKLFLHETAITITQPKFELKKTALGNGPIKKKKVSLYNKENPFAYCIDDKKEPAILIDPYIGKFLRPHQIEGVKFMYHCIMRGGECGCILADEMGLGKTLQTITLIWTVYKQCNIKKIVIVCPQSLIGNWEKEFKKWLGVERISVQTGSSDSSMKEKVNDFIRDYIPVLIISYEQVRSHVETLKKTKIGLIVCDEGHRIKNLMSKTNSSLKALGGSRHIILSGTPVQNGLEDFYSLIEFCSPGCLGTLSSFKRVFAIPIQKAQDGNASIEEIQLGTERAKELTNKLNDYVLRRTSQVNEKYLPDKTEIVLFIKPSYLQIKLYKIMLKELEKKKLDQCSALKYIQLFTKLCNHPSLISKYLTEEKISLNENDEKCIKGISLNEESSNKFNITIQFIKEILIKSKEKVVLVSNYTKTLDLFEIYFKQEEEYKQKKIFNYLRLDGKTSQKQRDIIVEKINDKSSNYNILLLSSKAGGVGLNLIGCSRLILFDPDWNPAKDKQAMARIWRDGQQKKAMIYRMLCTGTIEEKIYQRQLQKNQISESIIEEHLEMGKSLSVEQLMKIFELNTNTICDTHDLLQCDCCNGGYKTEEDTLHLIPKMKEEIKSIDPLISTIEGINKMVSMLFVNEFHNKQKMK |  | no binding
6 | enhancer binding protein-1 (endogenous) (protein, UniProt C4M5C4 1-306) MTTLYVSHLDYSLKVEDVQNAFKTYNPKEVKIISTPIGYSRGFAFIEFATPQEAEKALEMDRHTIGKMEIKVQKALPKEETTTERKMNRRGFKGKRNTRKRHLVKRTNEVTDNMLFIKNLPFAITEEKLKEMFSKFGVVEITLIKTHRKKGNVTKNNGIAFITVKTAEEQKKAIAEMNNFEVEGRKITVAAAYKKVENKQTTKKTNEPKSLSETNVFVKNLPFTLTDEGFKKLFEKYDVVEATIVKRHNKKLNVDRSKGYGFVTFKTAEQQKKAIAEMDNFEVEGRKITVTSAYQRAEKKEETTSN |  | no binding
7 | Tudor-like protein (endogenous) (protein, UniProt C4M0A8 1-861) MPAQNTQKKDLSKKVEKKPESEPKKEKKTFTAFVAKVKSNNSLTLSSKKDDKRSTVVLAYVDLPRYDAKEKKEEAFAYETNEILRKKLVTGKEVKFEVVSEHQGIPKAVVPFVRKENIVCTLIESGYASLKIKGKGKEFSQYFDAEQKAKDSHRGIFSEDMIKIAKKRPENIFFNEKEISELKGKTIQGHIKRVEAPSHYIIEDTNRRRFKVVLYGVNQMLRYNTEKDVFDFDDDAKDAMKYINRSFNQRDVTVKVIETSQRVAYAQLSVEKKDVAEELLRSGFVVCSKLENATEEIKQKYQAAEKEAKKEKKARWTEFDQAAEDAIIAKRQQRLKELEDRRKNAKIISGAEIIYIGNHIKAKKGNEEYNIHLASVRPVFKKNDKEFNDLVQFRIKECLRKLIVGKKFEAKECYKRSFTKEDKTIEEVFYDVYASGKNVAVTLIKEGLVVLEKTRDEFYQSFDYKLLSETPKGEYKEKVVTQYPAEKRESIKDVFLNNSFNCIVERVINVCKYVIYIPEKDCRMTVVLSHCRIPRDDENEELKKFNEESKAAVRALFGLNEVTVDFREFFKGNFCVDILSKKFDLCDLVLSKAYAQFSGRDIPENIAEMKENQEGIYKFAGAKKEGESKPVRPVKVVKEVHREIKFGEGKNVYITGFDGSMIYYYEKVADAKFIEELSNKLKKCNKGSVEQKDGQKCVVEIKGVQYRAIITKAVPTANVVKCIDTGAVIVCGKNKLKPLKEEYENIEVTVKSIALAGVKTLVRGKDVDFDAMINAVSSFFNKEATMFVATINDKEVAKVVVGDVCINNMLIEEGLSILDRFFNDNSDWGRAMTSAQSAAKDKHLNVWRYGEIDDDEEKDKH |  | no binding
8 | URE3-BP (upstream regulatory element 3-binding protein) (protein, UniProt C4MBE2 1-227) MQFGYPPMQPPVANFCLWNLQPIQGSWMGAACIYQMPPSVRNTWWFPLLNTIPLDQYTRIYQWFMGVDRDRSGTLEINELMMGQFPGGIRLSPQTALRMMRIFDTDFNGHISFYEFMAMYKFMELAYNLFVMNDRNRSGTLEPHEILPALQQLGFYINQRTSLLLHRLFARGMAFCDLNCWIAICAFAAQTRSAYQMIFMNPYYGPMKPFNPMEFGKFLDVVTSLLE |  | no binding
